Screening data, single-dose tests

Measurements from “University of Dundee, Small-Polar-MMV Screening Library” (2021), ChEMBL document CHEMBL3988442.

Values are the deposited “Percent Effect”, in %. How 0% and 100% were set is not recorded. Most values in the screen are low, and negative values occur. This is an unselected part of the compounds tested. Two or more numbers in one place are separate tests of the same structure; such repeats can differ widely.

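Phenotypic screen: M. tuberculosis growth, cholesterol and DPPC medium, 4 days; the read-out is not stated. Concentration: 50 µM. Higher reads as more growth inhibition (inferred: compounds with an IC50 in retests scored well above the rest). About 69,000 compounds were tested under these conditions; 0.54% (about 370) showed 50% or more at least once.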

structure,effect
CC(C)C(=O)N1CCN(S(C)(=O)=O)CC2(CC(=O)N(C)C2)C1 (centres undefined),12.33
COc1ccnc(N(C)Cc2c(C)noc2C)n1,9.373
CCOc1ccc(Cl)cc1CNCCCn1ccnc1,-16.58
Cc1nnc(NCC(c2cccs2)N2CCCC2)c(C#N)c1C (centres undefined),-12.5
COc1cc(OC)nc(N2CCCC(c3nccn3CCN(C)C)C2)n1 (centres undefined),-37.1
COc1cccc2c1OCC(C(=O)NCCn1nc(C)c(Cl)c1C)C2 (centres undefined),-0.5909
CS(=O)(=O)N1CCC2(CC1)c1ccccc1[C@@H](N1CCSCC1)[C@@H]2O,1.808
CCOc1cc(CNCc2nc(C)cc(=O)[nH]2)c(Cl)cc1OC(C)C,28.62
N#Cc1cnc2ccccc2c1N1CCC(C(=O)O)CC1,-12.93
COCC1(CNC(=O)Nc2cc(F)ccc2OC)CCCC1,-9.842 and -1.198
COc1ccc(C(=O)C2CCCN(c3cc(C#N)ccn3)C2)cc1F (centres undefined),8.123
O=C1N(Cc2cccc(F)c2)CCC12CCCNC2 (centres undefined),-6.207
O=C(O)C(F)(F)F.[H][C@]12CCN(C(=O)c3ccno3)[C@@]1([H])CC[C@@H](COCCN1CCCC1)O2,2.111
CC(Cn1cccn1)NCc1csc(COc2ccc(F)cc2)n1 (centres undefined),-13.75
Cc1ccc(CNC2(Cc3cc(CO)on3)COC2)o1,-19.29
COc1ccc([C@@H]2CN(c3cnccn3)C[C@H]2N(C)C)cc1,-16.07
Cc1noc(C)c1CN1CCN(C(=O)Cn2cncn2)CC1,-1.059
COCC(=O)N1CCC2(CC1)CCN(Cc1ccccn1)C2=O.O=C(O)C(F)(F)F,-17.99
COc1cc(C2CC(=O)Oc3cc(C)[nH]c(=O)c32)ccc1O (centres undefined),-11.84
Cc1cc2c(N)nc(=O)n(CC(=O)Nc3ccccc3)c2s1,7.92
Cc1ccc(C(C)N(C)Cc2nc3c(cnn3C)c(=O)[nH]2)c(C)c1 (centres undefined),9.287
Cc1noc(C)c1CN1CCCC1c1nnc2ccccn12 (centres undefined),-4.778
Cn1c(C(F)(F)F)nn(CCNC(=O)CSCc2ccccc2)c1=O,0.2866
O=C(O)COc1ccc(CN2CCCC(Cc3cccnc3)C2)cc1 (centres undefined),-3.421
N#Cc1cccc(CN2C[C@@H](F)[C@@H](OCc3nc4cnccc4[nH]3)C2)c1,-10.95
Cl.Fc1ccc(F)c(CN2CCC(c3cc4ncccc4cn3)CC2)c1,59.49
Cc1[nH]ncc1CCCNC(=O)Nc1ccc2c(c1)OC1(CCCC1)O2,23.81
O=C(Nc1ccc(Cl)cn1)c1nn(C2CCS(=O)(=O)C2)c2c1CCCC2 (centres undefined),-26.69
Cn1c(CN2CCCC(N3CCNC3=O)C2)cc(=O)n(C)c1=O (centres undefined),-7.724
CCc1nn(C)c2[nH]nc(NC(=O)c3cccnc3OCC(C)C)c12,-13.97
Cc1noc(C)c1C(=O)N1CCCC(c2c(C)c(=O)nc3n2CCC3)C1 (centres undefined),-2.797
Cn1ncc2c(=O)[nH]c(CN3CCCc4cc(F)cc(F)c43)nc21,-9.648
Cc1cc(C)n(Cc2ccc(-c3noc(C(=O)NCCO)n3)cc2)n1,0.9458
Cc1nc(C)n(C2CCCN(C(=O)c3ccc(CN(C)C)cc3)C2)n1 (centres undefined),3.307
O=C(c1ccc(-c2cccc3c2CCNC3)o1)N1CCCC1,4.599
CC(=O)N1CC2(CCN(c3ccc4ccccc4n3)CC2)CC1C(=O)O (centres undefined),7.254
Cc1cccc(N2CCC3(CCCC(=O)N3)CC2)n1.O=C(O)C(F)(F)F,73.8
CC(C)(C)C(=O)N1C[C@@H](F)[C@@H](OCc2nc3ncccc3[nH]2)C1,-22.46
CCS(=O)(=O)c1ccccc1N1CCC(NC(=O)C2CC2)CC1,6.609
O=C(O)C(F)(F)F.[H][C@@]12CCN(Cc3cccs3)C[C@]1([H])O[C@H](C(=O)NC1CCC1)C2,-1.059
CN(C)c1cc(C2CCCN2Cc2ccccc2OCC(=O)O)ccn1 (centres undefined),-10.07
CCN1CCN(c2nsc(-c3cccnc3)c2C#N)CC1,-17.42
CSCc1cccc(S(=O)(=O)NCCO)c1,10.73
CC(c1ccc(Cl)cc1)N1CCN(CCNS(C)(=O)=O)CC1 (centres undefined),7.012
CC(O)CN1CCC(CNCc2ccccc2OC(F)(F)F)CC1 (centres undefined),9.596
COCC1c2nnn(CC3CC3)c2CCN1C(=O)C1CCOCC1 (centres undefined),-11.95 and -1.509
O=C(Nc1ccccc1OCCc1ccccn1)N1CCOCC1,-4.993
[H][C@@]12CN(Cc3ccc(C#N)cc3)C[C@]1([H])OCC(=O)N2CC(N)=O,-1.274
Cc1nn(C)cc1C(=O)NCc1csc(C2CC2)n1,9.727
CC[C@@H](Cn1ncc2ccccc2c1=O)NC(=O)c1cnccn1,4.295
COC(=O)C1CCN(C(=O)c2nnc3ccc(Cl)cc3n2)CC1,19.2
CCn1ccnc1C1CCCN(c2nccc3ccccc23)C1 (centres undefined),1.784
Cc1cnn(CCC(=O)N2CCC(Nc3cccnn3)CC2)c1,-24.48
CCC(=O)N1CCC(c2nc(C)c3c(n2)N(C)CCC3)CC1,-4.335
C[C@@H]1CN(S(=O)(=O)N2CCCC2)C[C@@]1(O)C1CC1,-7.586 and 0.6129
O=C(O)C(F)(F)F.[H][C@@]12CCN(Cc3ccc(F)cc3)[C@]1([H])CC[C@H](C(=O)N1CCCO1)O2,-1.194
O=C(CO)N1CCCC(N2CCN(c3ccccc3F)CC2)C1 (centres undefined),-1.538
CN(Cc1cc2n(n1)CCCN(C(=O)N1CCCC1)C2)Cc1nccs1,-8.462
CN1CC2(CCN(C(=O)c3ccc(=O)n(C)c3)CC2)CC1=O,-5.622
NC(=O)C1CCN(C(=O)Cn2nc(-c3ccccc3)oc2=O)C1 (centres undefined),-11.45
[H][C@]12CC[C@]([H])(CN(Cc3ccccc3)C1)N(C(=O)c1ccccc1C#N)C2,3.633
Cc1cnc(N2CCCC(O)C2)nc1-c1ccnn1C (centres undefined),-2.537 and 5.027
Cc1nnc(C(C)N(C)Cc2c(C)nn(-c3ccccc3)c2C)o1 (centres undefined),12.24
N#Cc1c(F)cccc1Nc1cnn(CC(N)=O)c1,-9.247
Cc1cnc(NC(=O)c2csc(NCC(C)C)n2)s1,39.33
[H][C@@]12C[C@@H](c3nc(C)no3)CN(S(C)(=O)=O)[C@]1([H])CCO2,-15.34
Cc1c(NCCO)cccc1OC1CCCC1,-2.67
COc1nc2c(cc1C(=O)N1CCCC1c1ccccn1)CCC2 (centres undefined),-23.46
c1ncn(CCNC2CCCN(Cc3noc(C4CC4)n3)C2)n1 (centres undefined),-4.87 and -30.48
Cc1cc(C)n(CC2CN(CC(=O)NC3CCCC3)CCO2)n1 (centres undefined),-13.32
CS(=O)(=O)NCc1ncn2c1CN(CCN1CCCC1)CCC2,-19.4
CC(SCCNS(=O)(=O)c1cnn(C)c1)c1cccs1 (centres undefined),12.21
O=C(NCCCc1ccncc1)C1CCCN(Cc2ccco2)C1 (centres undefined),-32.56
CC1(C)Cc2ccc(C(=O)NC3CCOCC3)c(O)c2O1,0.9124
COc1ccc(CCC2CCCN(C(=O)c3cnc(N)nc3C)C2)cc1 (centres undefined),0.3618
O=C1CCCN1CCCNCc1cc(O)c2cccc(Cl)c2n1,-10.92
O=C1NC2(CCN(Cc3cccnc3)CC2)CC1c1ccncc1 (centres undefined),-29.04
CCN(C(=O)C1CC1)C(c1cccnc1)c1ccc2c(c1)CCO2 (centres undefined),-7.506 and 17.28
CNC(=O)C1Cn2ccnc2C2(CCN(C(=O)CC3CCCC3)CC2)O1.O=C(O)C(F)(F)F (centres undefined),-20.76
Cc1[nH]ccc1C(=O)N(Cc1ccc(O)cc1)CC1CC1,-3.352
O=C(NCCc1cnccn1)c1cccc(S(=O)(=O)NC2CCOC2)c1 (centres undefined),-14
O=C(Nc1nncs1)NC1CCCc2c1cnn2CCO (centres undefined),-8.126 and -13.09
Cc1nn(C)c(Cl)c1C1CCCN1C(=O)c1csnn1 (centres undefined),-11.34
O=C1CN(c2ccc(CNC(=O)NCCO)cc2)CCN1,-9.102
COc1ncccc1C(=O)NCCn1nc(C)ccc1=O,-5.148
Cn1nccc1CCC(=O)NC1CCCN(c2ccccn2)C1 (centres undefined),3.8 and 3.183
Cc1csc(CN(C)C(=O)Nc2cc(F)cc(N3CCCC3)c2)n1,-8.183
CSc1ncnc(NCc2ccco2)c1C#N,-6.124

Some entries from above, unchanged:

| structure | effect |
|---|---|
| `CCc1nn(C)c2[nH]nc(NC(=O)c3cccnc3OCC(C)C)c12` | -13.97 |
| `N#Cc1cccc(CN2C[C@@H](F)[C@@H](OCc3nc4cnccc4[nH]3)C2)c1` | -10.95 |
| `CCOc1ccc(Cl)cc1CNCCCn1ccnc1` | -16.58 |
| `Cc1cc(C)n(Cc2ccc(-c3noc(C(=O)NCCO)n3)cc2)n1` | 0.9458 |
| `Cc1noc(C)c1CN1CCN(C(=O)Cn2cncn2)CC1` | -1.059 |
| `COc1cc(OC)nc(N2CCCC(c3nccn3CCN(C)C)C2)n1` (centres undefined) | -37.1 |
| `CCOc1cc(CNCc2nc(C)cc(=O)[nH]2)c(Cl)cc1OC(C)C` | 28.62 |
| `CC(c1ccc(Cl)cc1)N1CCN(CCNS(C)(=O)=O)CC1` (centres undefined) | 7.012 |
| `CC[C@@H](Cn1ncc2ccccc2c1=O)NC(=O)c1cnccn1` | 4.295 |
| `O=C(O)C(F)(F)F.[H][C@@]12CCN(Cc3cccs3)C[C@]1([H])O[C@H](C(=O)NC1CCC1)C2` | -1.059 |
| `COCC1c2nnn(CC3CC3)c2CCN1C(=O)C1CCOCC1` (centres undefined) | -11.95 and -1.509 |